# Experimental data from PubChem BioAssay AID743255 (National Center for Advancing Translational Sciences (NCATS), 2014).
# Sequences of proteins named here, by UniProt entry; tags and fusion partners are left off. A change or cut given only in a name is not applied to a line headed by its entry.
# UniProt O94782: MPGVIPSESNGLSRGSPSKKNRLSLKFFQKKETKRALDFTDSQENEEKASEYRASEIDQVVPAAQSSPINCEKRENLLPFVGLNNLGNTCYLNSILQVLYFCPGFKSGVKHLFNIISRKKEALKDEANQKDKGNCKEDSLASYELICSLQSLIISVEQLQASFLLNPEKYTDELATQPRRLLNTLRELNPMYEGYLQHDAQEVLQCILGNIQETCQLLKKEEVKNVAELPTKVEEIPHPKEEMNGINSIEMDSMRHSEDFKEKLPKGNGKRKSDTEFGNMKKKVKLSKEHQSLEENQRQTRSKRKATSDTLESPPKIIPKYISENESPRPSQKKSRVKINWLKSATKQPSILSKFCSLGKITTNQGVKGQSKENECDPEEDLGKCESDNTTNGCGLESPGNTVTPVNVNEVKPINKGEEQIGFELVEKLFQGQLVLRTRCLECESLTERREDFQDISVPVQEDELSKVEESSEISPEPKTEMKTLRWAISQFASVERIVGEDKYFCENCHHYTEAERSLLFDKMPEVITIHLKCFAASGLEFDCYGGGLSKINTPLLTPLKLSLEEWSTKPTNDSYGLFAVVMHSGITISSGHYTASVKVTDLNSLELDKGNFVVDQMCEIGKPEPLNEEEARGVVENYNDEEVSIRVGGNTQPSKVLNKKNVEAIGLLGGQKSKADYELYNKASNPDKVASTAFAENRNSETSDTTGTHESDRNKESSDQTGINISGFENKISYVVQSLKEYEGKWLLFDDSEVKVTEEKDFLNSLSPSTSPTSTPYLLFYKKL
# Among all 390,000 compounds or so, about 910 (0.23%) were called active. The inconclusive results got no clear call from the source; some entries with a clear call stand among them for comparison. The call rests on the fitted dose curve; in most records, active means well fitted inhibition curve with a large enough effect; inconclusive means small, poorly fitted or top-dose-only effect; inactive means no such curve, though single readings can be large or run the other way. A potency beside an inconclusive call is a rough fit, not a confirmed value.
# Molecular target: Ubiquitin carboxyl-terminal hydrolase 1 (Homo sapiens) (UniProt O94782)
# Test: Inhibitors of USP1/UAF1: Primary Screen; further: nearly all actives have a fitted effect of over 60% in size
# Conditions: recombinant USP1/UAF1, Ub-Rhodamine cleavage fluorescence; series mostly up to 57.1 µM
# Outline: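 In this screen, compounds sit with the deubiquitinase complex (1nM) for 15 min at room temperature before Ub-Rho is added at 150nM final. Fluorescence rise is then followed for 6 reads every 60 seconds.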
# Potency means the concentration at half of the fitted maximal effect.
row,Structure (SMILES),Potency
1,N#Cc1ccccc1NC(=O)c1ccccc1OCC(=O)Nc1ccc2c(c1)oc1ccccc12,"inconclusive: 0.631 µM [inhibitor, full curve, poor fit]"
2,Cc1csc2nc3cc(C(N)=O)ccc3c(=O)n12,"inconclusive: 50.1 µM [inhibitor, partial curve, poor fit]"
3,CCSc1nnc2c(n1)OC1(CCCC1)Nc1ccccc1-2,"inconclusive: 7.94 µM [inhibitor, partial curve]"
4,Cc1ccsc1/C=N/NC(=O)c1ccc2c(c1)OCCO2,"inconclusive: 1.78 µM [inhibitor, partial curve]"
5,CCOC(=O)CN1C(=O)N[C@H](c2ccc(Br)cc2)C(C(C)=O)=C1C,"inconclusive: 39.8 µM [inhibitor, partial curve, poor fit]"
6,COc1ccc(-c2cc3ccc(O)c(CN4CCC(C)CC4)c3oc2=O)cc1,"inconclusive: 70.8 µM [inhibitor, partial curve, poor fit]"
7,CCOC(=O)C1=C(C)OC(N)=C(C#N)C1c1c(C)nn(-c2ccccc2)c1Cl (configuration not stated),"inconclusive: 31.6 µM [inhibitor, partial curve]"
8,CCCCC(CCC(=O)O)(C(=O)OCC)c1csc(Nc2ccccc2)n1 (configuration not stated),inactive
9,NC(CC(=O)NC(c1ccccc1)(c1ccccc1)c1ccccc1)C(=O)O (configuration not stated),"inconclusive: 0.501 µM [inhibitor, full curve, poor fit]"
10,CCCCCNC(=O)C(C#N)c1nc2ccccc2nc1N1CCCC1 (configuration not stated),"inconclusive: 50.1 µM [inhibitor, single point]"
11,Cc1ccc(Cc2cnc(N3C(=N)SC(C)C3=O)s2)cc1 (configuration not stated),"inconclusive: 15.8 µM [inhibitor, partial curve]"
12,COc1ccc(CCNc2nc3ccccc3n3nnnc23)cc1OC,"inconclusive: 8.91 µM [inhibitor, partial curve, poor fit]"
13,COc1ccc(-c2cc3ccc(OC)cc3cn2)cc1,"inconclusive: 44.7 µM [inhibitor, partial curve, poor fit]"
14,Cc1ccc(-c2nc(Nc3ccc(N4CCOCC4)cc3)c3ccccc3n2)cc1,"inconclusive: 50.1 µM [inhibitor, partial curve, poor fit]"
15,Cc1ccc(/C=C2\SC(=S)N(C(Cc3ccccc3)C(=O)O)C2=O)cc1 (configuration not stated),"inconclusive: 89.1 µM [inhibitor, partial curve, poor fit]"
16,CC(C)n1nc(C(=O)NNC(=O)c2ccc(OC(F)F)cc2)c2ccccc2c1=O,inactive
17,COCOCCn1cc(CN2CCS(=O)(=O)N(Cc3ccc(-c4ccc(Cl)nc4)cc3)C(CC(C)C)C2=O)nn1 (configuration not stated),"inconclusive: 0.251 µM [inhibitor, full curve, poor fit]"

# From no. 11 as far as 12, as listed above:
row,Structure (SMILES),Potency
11,Cc1ccc(Cc2cnc(N3C(=N)SC(C)C3=O)s2)cc1 (configuration not stated),"inconclusive: 15.8 µM [inhibitor, partial curve]"
12,COc1ccc(CCNc2nc3ccccc3n3nnnc23)cc1OC,"inconclusive: 8.91 µM [inhibitor, partial curve, poor fit]"
